# Data from US12310985B2, “Composition and method for treatment of diabetes” (SHENZHEN PROFOUND VIEW PHARMACEUTICAL TECHNOLOGY, priority 2020, dated 2025).
# Counter-ions that a name gives are not always drawn. For at least one compound, name, drawing or mass did not settle the structure.
# Legend:
# Type in all cases: in vivo
# [1] = tested on: C57BL/6 male mice, high energy feed + STZ diabetic model; assay: Serum cholesterol (TC) and triglyceride (TG) content; details: in words; P>0.05
# Protocol: (§1) After each group was given a maintenance feed for 1 week, except for the negative control group, the other groups were replaced with the high energy feed from 3.1.7.1. After 3 weeks of feeding, each group was fasted for 24 h. Except for the negative control group, the other groups were intraperitoneally injected with 5 mg/mL STZ solution at a dose of 20 mL/kg bodyweight. All groups were fed for 4 days. Fasting blood glucose and glucose tolerance were measured on the 5th day, and the test was terminated the next day. […]
# (§2) On the 5th day after intraperitoneal injection of STZ, the mice in each group were fasted for about 5 hours with water provided. […] After 20 minutes, each group was intragastrically administered with 0.125 g/mL glucose solution at 20 mL/kg bodyweight, and the blood glucose level was measured at 0.5, 1, 1.5, 2 h after the administration of the glucose solution. […]
# (§3) At the end of the experiment, serum was collected for assaying serum insulin, triglycerides, and total cholesterol. The insulin resistance index was calculated.
# [2] = tested on: C57BL/6 male mice, high energy feed + STZ diabetic model; assay: Pancreatic insulin content (ELISA); details: in words; P>0.05
# Protocol: (§4) After each group was given a maintenance feed for 1 week, except for the negative control group, the other groups were replaced with the high energy feed from 3.1.7.1. After 3 weeks of feeding, each group was fasted for 24 h. Except for the negative control group, the other groups were intraperitoneally injected with 5 mg/mL STZ solution at a dose of 20 mL/kg bodyweight. All groups were fed for 4 days. Fasting blood glucose and glucose tolerance were measured on the 5th day, and the test was terminated the next day.
# (§5) From the feeding of the maintenance feed, the sample group was intraperitoneally injected with the test sample solution once per day at 20 mL/kg bodyweight, the negative control group and the model control group were intraperitoneally injected with sodium chloride solution, and the positive control group was intragastrically administered with pioglitazone hydrochloride solution at a dose of 20 mL/kg bodyweight for 34 days until the end of the test. […]
# as §2
# [3] = tested on: C57BL/6 male mice, high energy feed + STZ diabetic model; assay: Insulin immunohistochemistry in pancreas; details: compared with the negative control group, hydrochloride
# [4] = tested on: C57BL/6 male mice, high energy feed + STZ diabetic model; assay: Serum insulin content; details: in words; P<0.05
# Protocol: as §1, §2, §3
# [5] = tested on: C57BL/6 male mice, high energy feed + STZ diabetic model; assay: HE staining of pancreas; details: FIG. 9
# [6] = tested on: C57BL/6 male mice, high energy feed + STZ diabetic model; assay: Fasting blood glucose index; details: in words; P<0.05
# Protocol: as §4, §5, §2
compound,measurement,setting,value
"CCc1ccc(CCOc2ccc(CC3SC(=O)NC3=O)cc2)nc1 (centres unmarked) [Positive control, Pioglitazone hydrochloride]",TG content,[1],"decreased, but without significance"
same,pancreatic insulin content compared with the model control group,[2],"increased, but without significance"
same,insulin-positive islets (insulin immunohistochemistry in the pancreases),[3]; FIG. 10,significant decrease
same,number of insulin-positive cells (insulin immunohistochemistry in the islets),[3]; FIG. 11,significant decrease
same,serum insulin content compared with the model control group,[4],increased statistically
same,lymphocyte infiltration into islets (HE staining),[5],apparent lymphocyte infiltration
same,"islet numbers, islet volumes and islet cell numbers (HE staining)",[5]; compared with the negative control group,moderate decreases
same,fasting blood glucose levels compared with the model control group,[6],decreased significantly
